Measured values as given in the supplement of paper PMC8728848.
The other results are listed elsewhere or left out.

How the values were obtained:
Assay in all cases: glycan array binding signal (z-score within array); higher = stronger binding
Details in all cases: glycan notation: IUPAC condensed, linker removed
[1] = target: Neu5Ac(a2-3)Gal(b1-3)]Neu5Ac(a2-3)Gal(b1-4)]GlcNAc
Procedure, shortened: (§1)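 Glycan array data were curated from 3228 arrays in the Consortium for Functional Glycomics database and kept only where the protein sequence was available. Glycan names were converted to IUPAC-condensed notation, and columns mapping to the same glycan were averaged. The binding signal is a within-array Z-score, averaged across arrays of the same protein sequence at different concentrations or buffers and across linkers. Negative Z-scores can be read as non-binding.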

Neu5Ac(a2-3)Gal(b1-4)Glc = target: Neu5Ac(a2-3)Gal(b1-4)Glc
Procedure, shortened: as §1

[2] = target: Neu5Ac(a2-3)Gal(b1-4)GlcNAc
Procedure, shortened: as §1

[3] = target: Neu5Ac(a2-3)Gal(b1-4)GlcNAc(b1-2)Man
Procedure, shortened: as §1

[4] = target: Neu5Ac(a2-3)Gal(b1-4)GlcNAc(b1-2)Man(a1-3)[GlcNAc(b1-4)][Neu5Ac(a2-3)Gal(b1-4)GlcNAc(b1-2)Man(a1-6)]Man(b1-4)GlcNAc(b1-4)GlcNAc
Procedure, shortened: as §1

[5] = target: Neu5Ac(a2-3)Gal(b1-4)GlcNAc(b1-2)Man(a1-3)[Neu5Ac(a2-3)Gal(b1-4)GlcNAc(b1-2)Man(a1-6)]Man(b1-4)GlcNAc(b1-4)GlcNAc
Procedure, shortened: as §1

[6] = target: Neu5Ac(a2-3)Gal(b1-4)GlcNAc(b1-2)Man(a1-3)[Neu5Ac(a2-3)Gal(b1-4)GlcNAc(b1-2)Man(a1-6)]Man(b1-4)GlcNAc(b1-4)[Fuc(a1-6)]GlcNAc
Procedure, shortened: as §1

[7] = target: Neu5Ac(a2-3)Gal(b1-4)GlcNAc(b1-2)Man(a1-3)[Neu5Ac(a2-6)Gal(b1-4)GlcNAc(b1-2)Man(a1-6)]Man(b1-4)GlcNAc(b1-4)GlcNAc
Procedure, shortened: as §1

[8] = target: Neu5Ac(a2-3)Gal(b1-4)GlcNAc(b1-2)[Neu5Ac(a2-3)Gal(b1-4)GlcNAc(b1-4)]Man(a1-3)[GlcNAc(b1-4)][Neu5Ac(a2-3)Gal(b1-4)GlcNAc(b1-2)[Neu5Ac(a2-3)Gal(b1-4)GlcNAc(b1-6)]Man(a1-6)]Man(b1-4)GlcNAc(b1-4)GlcNAc
Procedure, shortened: as §1

[9] = target: Neu5Ac(a2-3)Gal(b1-4)GlcNAc(b1-2)[Neu5Ac(a2-3)Gal(b1-4)GlcNAc(b1-4)]Man(a1-3)[GlcNAc(b1-4)][Neu5Ac(a2-3)Gal(b1-4)GlcNAc(b1-4)Man(a1-6)]Man(b1-4)GlcNAc(b1-4)GlcNAc
Procedure, shortened: as §1

[10] = target: Neu5Ac(a2-3)Gal(b1-4)GlcNAc(b1-2)[Neu5Ac(a2-3)Gal(b1-4)GlcNAc(b1-6)]Man(a1-6)[Neu5Ac(a2-3)Gal(b1-4)GlcNAc(b1-2)Man(a1-3)][GlcNAc(b1-4)]Man(b1-4)GlcNAc(b1-4)GlcNAc
Procedure, shortened: as §1

[11] = target: Neu5Ac(a2-3)Gal(b1-4)GlcNAc(b1-3)Gal
Procedure, shortened: as §1

[12] = target: Neu5Ac(a2-3)Gal(b1-4)GlcNAc(b1-3)Gal(b1-3)GlcNAc
Procedure, shortened: as §1

[13] = target: Neu5Ac(a2-3)Gal(b1-4)GlcNAc(b1-3)Gal(b1-4)GlcNAc
Procedure, shortened: as §1

[14] = target: Neu5Ac(a2-3)Gal(b1-4)GlcNAc(b1-3)Gal(b1-4)GlcNAc(b1-2)Man(a1-3)[Neu5Ac(a2-3)Gal(b1-4)GlcNAc(b1-3)Gal(b1-4)GlcNAc(b1-2)Man(a1-6)]Man(b1-4)GlcNAc(b1-4)GlcNAc
Procedure, shortened: as §1

[15] = target: Neu5Ac(a2-3)Gal(b1-4)GlcNAc(b1-3)Gal(b1-4)GlcNAc(b1-3)Gal(b1-4)GlcNAc
Procedure, shortened: as §1

[16] = target: Neu5Ac(a2-3)Gal(b1-4)GlcNAc(b1-3)Gal(b1-4)GlcNAc(b1-3)Gal(b1-4)GlcNAc(b1-2)Man(a1-3)[Neu5Ac(a2-3)Gal(b1-4)GlcNAc(b1-3)Gal(b1-4)GlcNAc(b1-3)Gal(b1-4)GlcNAc(b1-2)Man(a1-6)]GalNAc
Procedure, shortened: as §1

[17] = target: Neu5Ac(a2-3)Gal(b1-4)GlcNAc(b1-3)Gal(b1-4)GlcNAc(b1-3)GalNAc
Procedure, shortened: as §1

[18] = target: Neu5Ac(a2-3)Gal(b1-4)GlcNAc(b1-3)Gal(b1-4)GlcNAc(b1-3)[Neu5Ac(a2-3)Gal(b1-4)GlcNAc(b1-3)Gal(b1-4)GlcNAc(b1-6)]GalNAc
Procedure, shortened: as §1

[19] = target: Neu5Ac(a2-3)Gal(b1-4)GlcNAc(b1-3)Gal(b1-4)GlcNAc(b1-6)[Gal(b1-3)]GalNAc
Procedure, shortened: as §1

[20] = target: Neu5Ac(a2-3)Gal(b1-4)GlcNAc(b1-3)Gal(b1-4)[Fuc(a1-3)]GlcNAc
Procedure, shortened: as §1

[21] = target: Neu5Ac(a2-3)Gal(b1-4)GlcNAc(b1-3)GalNAc
Procedure, shortened: as §1

[22] = target: Neu5Ac(a2-3)Gal(b1-4)GlcNAc(b1-3)[Neu5Ac(a2-3)Gal(b1-4)GlcNAc(b1-6)]GalNAc
Procedure, shortened: as §1

B1: EUL D1A first (Oryza sativa) (protein)
chain: MFGFGHHHNQAPAAPSDPNQIFKIFCRANENYCLTVRDSAVVLAPVNPKDEHQHWFKDMRFSTKVKDGEGMPAFALVNKATGLAVKHSLGQSHPVKLVPFNPEYEDASVLWTESKDVGKGFRCIRMVNNTRLNLDAFHGDKDHGGVRDGTTVVLWEWCKGDNQSWKILPWGPEAHSSSPGAATILEQKLISEEDLNSAVDHHHHHH
glycan array binding signal (z-score) [1]: -0.666
glycan array binding signal (z-score) (Neu5Ac(a2-3)Gal(b1-4)Glc): 1.98
glycan array binding signal (z-score) [2]: -0.816
glycan array binding signal (z-score) [3]: -0.15
glycan array binding signal (z-score) [4]: 0.47
glycan array binding signal (z-score) [5]: 0.155
glycan array binding signal (z-score) [6]: 0.115
glycan array binding signal (z-score) [7]: -0.281
glycan array binding signal (z-score) [8]: -1.13
glycan array binding signal (z-score) [9]: -0.352
glycan array binding signal (z-score) [10]: -0.447
glycan array binding signal (z-score) [11]: 0.293
glycan array binding signal (z-score) [12]: -0.65
glycan array binding signal (z-score) [13]: -1.11
glycan array binding signal (z-score) [14]: -0.845
glycan array binding signal (z-score) [15]: -1.75
glycan array binding signal (z-score) [16]: 1.04
glycan array binding signal (z-score) [17]: 0.43
glycan array binding signal (z-score) [18]: -1.42
glycan array binding signal (z-score) [19]: 0.24
glycan array binding signal (z-score) [20]: -0.958
glycan array binding signal (z-score) [21]: 0.212
glycan array binding signal (z-score) [22]: 0.425
